The list shows a part of the results.
Test system: T1, CTL2-GFP (C. trachomatis L2/434/Bu, GFP-expressing)
T1 construct: L2/434/Bu, GFP-expressing
Design: species or system HeLa; Intracellular C. trachomatis growth in HeLa cells, bulk GFP fluorescence relative to DMSO
Conditions: bulk GFP, single well; 28.5 h, 10 µM; inhibitor

| Structure (SMILES) | % of control remaining [%] |
| --- | --- |
| COc1ccc(OCC(=O)N/N=C\c2c(OC)ccc3ccccc23)c(Br)c1 [CBK261235] | 123.712 |
| CC1(C)OCc2nc(C(O)C(C)(C)C)ccc2O1 (stereo not shown) [CBK005386] | 156.063 |
| CC(=O)Nc1ccc(S(=O)(=O)NCCCc2ccccc2)cc1 [CBK265488] | 100 |
| O=C(Nc1nccs1)c1cccc(Cl)c1Cl [CBK058011] | 135.49 |
| Cc1nccn1CC1(O)CCN(Cc2c[nH]c3ccccc23)CC1 [CBK282671] | 106.894 |
| CC1CCCCN1CC(=O)Nc1ccccc1Oc1ccccc1 (stereo not shown) [CBK023182C] | 151.957 |
| O=c1n(-c2cccc(C(F)(F)F)c2)ccn1S(=O)(=O)c1ccc(Cl)c(Cl)c1 [CBK106579] | 103.321 |
| O=C(CCC1COc2ccccc2O1)Nc1ccc(C(=O)O)cc1 (stereo not shown) [CBK269856] | 131.362 |
| O=c1c2nnc3ncnn3c2ccn1-c1ccccc1 [CBK288075] | 88.276 |
| COC(=O)NC(O)C(=O)c1cccs1 (stereo not shown) [CBK027755] | 113.263 |
| O=S(=O)(NCc1ccccc1)N1CCCCCC1 [CBK269569] | 101.966 |
| CC1CCN(c2nc3nonc3nc2Nc2ccc3c(c2)OCO3)CC1 [CBK077551] | 135.003 |
| O=C1CCCN1CCCNC(=O)C1(c2ccccc2)COc2ccccc21 (stereo not shown) [CBK017653] | 94.4912 |
| O=C(Nc1ccc(S(=O)(=O)N2CCCC2)cc1)C1CC(=O)N(Cc2ccco2)C1 (stereo not shown) [CBK297500] | 114.35 |
| O=C(c1c(F)cccc1F)N1CCC(O)(c2ccccn2)CC1 [CBK283670] | 109.715 |
| Cc1nc(CN2CCC(O)(c3ccccc3F)CC2)c2ccccn12 [CBK282799] | 128.166 |
| Cc1sc(NC(=S)NC(=O)C2CCCCC2)c(C(N)=O)c1C [CBK266273] | 172.275 |
| CCCNc1cncc(-c2cccc(O)c2)n1 [CBK065447] | 134.828 |
| CC(C)Nc1cncc(OCCN2CCOCC2)n1 [CBK115599] | 106.331 |
| Cn1nnnc1SCCNCc1ccc2c(c1)n(C)c(=O)n2C [CBK270080C] | 136.587 |
| COc1ccc2[nH]c3c(c2c1)CCNC31CCN(C(=O)COc2ccccc2)C1 (stereo not shown) [CBK061661] | 112.579 |
| Cn1c2ccccc2c2cc(C(O)(CC(=O)CC(O)(c3ccc4c(c3)c3ccccc3n4C)C(F)(F)F)C(F)(F)F)ccc21 (stereo not shown) [CBK262254] | 96.7722 |
| COc1ccc(CNc2oc(-c3ccccc3)nc2S(=O)(=O)c2ccccc2)cc1 [CBK267669] | 81.576 |
| O=C1N[C@H]2CCCN(C(=O)CCN3CCCC3)[C@H]2C/C=C/CCOc2ccccc21 [CBK292162] | 93.9615 |
| Cc1cc2c(cc3c(=O)n(CC(=O)NC4CCCC4)nc(C)n32)s1 [CBK284072] | 107.302 |
| CC(C)C(=O)Nc1ccc2c(c1)C(=O)N(CCC(=O)O)C2=O [CBK286544] | 111.176 |
| COc1ccc(-c2cc(C(=O)NCCc3ccncc3)cnc2-c2cccc(C)c2)cn1 [CBK037489] | 96.9654 |

Among those listed so far, two contain an NH in an aromatic ring:

| Structure (SMILES) | % of control remaining [%] |
| --- | --- |
| Cc1nccn1CC1(O)CCN(Cc2c[nH]c3ccccc23)CC1 [CBK282671] | 106.894 |
| COc1ccc2[nH]c3c(c2c1)CCNC31CCN(C(=O)COc2ccccc2)C1 (stereo not shown) [CBK061661] | 112.579 |

Remaining list, next part:

| Structure (SMILES) | % of control remaining [%] |
| --- | --- |
| COc1cc(CN(C)CCc2ccccn2)c([N+](=O)[O-])cc1OC [CBK261737G] | 100 |
| Cc1noc(C)c1C(=O)N1CCC[C@H](C(=O)c2ccc(F)cc2)C1 [CBK284334] | 93.7311 |
| N#Cc1c(-c2ccccc2)cc(-c2ccccc2)nc1SCC(=O)O [CBK131684] | 124.807 |
| O=C(NCc1ccc2c(c1)OCO2)c1ccc2[nH]ccc2c1 [CBK161750] | 162.397 |
| COc1cccc(-c2cc(C(=O)NCCCN3CCOCC3)c3ccccc3n2)c1 [CBK262630] | 118.37 |
| Cc1cc(C)n(CC(O)CN(Cc2ccco2)Cc2cccs2)n1 (stereo not shown) [CBK282979] | 104.744 |
| Cc1c(/C=C2\SC(=S)NC2=O)c2ccccc2n1Cc1ccccc1Cl [CBK263946] | 115.306 |
| O=C1CC(NCC2CCCO2)C(=O)N1c1ccc(N2C(=O)CC(NCC3CCCO3)C2=O)cc1 (stereo not shown) [CBK263962] | 100 |
| CCCNCC(=O)N1CN(C(=O)c2ccc(C)cc2)C(C)(C)C1 [CBK089572C] | 111.375 |
| COc1ccc(CN2CCC3(CCc4ccccc4C(=O)N3)C2)cc1 (stereo not shown) [CBK283339] | 107.499 |
| CC(=O)Nc1ccc(OC(=O)CSc2nc(C)cc(C)n2)cc1 [CBK266707] | 183.824 |
| Cn1c(CCC(=O)NCC(C)(C)N2CCCCC2)nc2ccccc21 [CBK281877] | 105.374 |
| Cc1nnc(Sc2ccc([N+](=O)[O-])cc2Cl)n1Cc1ccccc1 [CBK269694] | 124.325 |
| CN1C(=O)c2ccccc2OCCCCC[C@H]2[C@@H]1CCCN2C(=O)c1cc2c([nH]c1=O)CCC2 [CBK292034] | 99.6157 |
| Cc1cc2ncn(CC(=O)N3CCC(F)CC3)c2cc1C [CBK200266] | 90.0868 |
| CCCC1=NN(c2ccc([N+](=O)[O-])cc2)C(=O)/C1=C/NC1CC(C)(C)NC(C)(C)C1 [CBK262896] | 121.221 |
| COC(=O)c1cc(C)sc1NC(=S)Nc1cnn(Cc2cccc3ccccc23)c1 [CBK267098] | 185.772 |
| c1ccc(CNc2c(-c3ccco3)nc3cnccn23)cc1 [CBK283933] | 133.921 |
| CC(=O)NCCNS(=O)(=O)c1ccc(C(C)C)cc1 [CBK043726] | 180.319 |
| O=C(c1ccccc1F)N1CCCC1Cn1c(=O)oc2ccccc21 (stereo not shown) [CBK282926] | 105.712 |
| Cc1cc(C)n(CC2CN(CC(=O)NCc3cccs3)CCO2)n1 (stereo not shown) [CBK304902] | 111.009 |
| COc1cccc(/C=C2/NC(=O)N(c3cccc(Cl)c3)C2=O)c1OCc1cccc(C(=O)O)c1 [CBK265626] | 110.935 |
| Cc1sc(NC(=O)c2ccc3c(c2)OCCO3)c(C(=O)NCc2cccnc2)c1C [CBK268181] | 129.423 |
| COC(=O)c1ccc(N2CCOCC2)c(NC(=O)c2cccnc2)c1 [CBK270257] | 129.259 |
| CC(C)(C)c1ccc(C(=O)CC(C(=O)O)N2CCN(c3cccc(Cl)c3)CC2)cc1 (stereo not shown) [CBK077385] | 111.9 |
| COc1ccc(CNC(=O)c2sccc2S(=O)(=O)N2CCCCC2)cc1 [CBK305904] | 101.265 |
| O=C(O)CCSc1nc(-c2ccccc2)c(-c2ccccc2)[nH]1 [CBK264228] | 119.8 |

| Structure (SMILES) | % of control remaining [%] |
| --- | --- |
| CN(C)c1cccc2c(S(=O)(=O)n3ccn(-c4cccc(C(F)(F)F)c4)c3=O)cccc12 [CBK106578] | 107.004 |
| Cn1ncc2c1CCCN(C(=O)COc1cccc(F)c1)C2 [CBK285257] | 132.483 |
| CC(=O)Nc1ccc(S(=O)(=O)NCCC#N)cc1Cl [CBK044272] | 114.291 |
| COC(=O)[C@@H](C)NC(=O)[C@H]1CN(C(=O)Nc2ccccc2)CCN1C(=O)NC(C)C [CBK289631] | 113.166 |
| Cc1ccc([N+](=O)[O-])cc1NC(=O)CCn1cnc2ccccc2c1=O [CBK267644] | 129.519 |
| O=C1NCCCc2nc(Nc3ccccc3)sc21 [CBK087091] | 108.019 |
| Cc1cc(C[C@@H]2CCC[C@H]2NCc2cccnc2)on1 [CBK284933] | 97.0745 |
| COc1cc(Nc2nc(-c3cccc4ccccc34)cn3ccnc23)cc(OC)c1OC [CBK036608] | 81.9785 |
| CC1(C(=O)NC(c2ccncc2)c2ccc(Cl)cc2)CCCO1 (stereo not shown) [CBK282710] | 151.936 |
| CC(C)NC(=O)Cn1c(-c2ccc(F)cc2)cc2cccnc21 [CBK284862] | 115.798 |
| COC(=O)[C@H]1CN(C(=O)c2ccccn2)C[C@@H]1c1ccc(F)cc1 [CBK283727] | 123.046 |
| O=C(NCc1nnc(-c2cccs2)o1)c1cccc(-c2ccc(F)cc2)c1 [CBK286296] | 123.808 |
| Cc1ccc(C(=O)c2cccc(N3C(=O)c4ccc(C(=O)O)cc4C3=O)c2)cc1C [CBK286994] | 112.452 |
| COc1ccc(OC)c(NC(=O)c2c[nH]c(=O)n(-c3ccc(F)cc3)c2=O)c1 [CBK287552] | 135.091 |
| Nc1ccc(Sc2nccnc2N2CCCC2)cc1 [CBK089520] | 111.464 |
| CCC(CCC(=O)Nc1ccccc1Cl)C(=O)O (stereo not shown) [CBK286767] | 157.269 |
| CSc1nc(N)nc2sc3c(O)cc(=O)[nH]c3c12 [CBK267457] | 138.718 |
| O=[N+]([O-])c1ccc(CN2CCN(Cc3cccnc3)CC2)cc1 [CBK263161] | 110.624 |
| Cc1sc(NC(=O)C2C3C=CC(C3)C2C(=O)O)c(C(N)=O)c1C (stereo not shown) [CBK263685] | 100 |
| COc1ccc(OC)c(CCO)c1 [CBK003033] | 118.378 |
| CN1CCN(C(=O)c2ccc(-c3cnc4[nH]c(=O)n(CCN5CCOCC5)c4n3)cc2)CC1 [CBK064800] | 122.105 |
| O=C1CC(N2CCN(CCc3ccncc3)CC2)C(=O)N1c1ccc(Cl)cc1 (stereo not shown) [CBK270078] | 177.109 |
| O=C(Cn1cnnn1)NC1CCCC1 [CBK200372] | 93.4043 |
| COc1ncc(-c2ccc(Nc3ccc(N4CCOCC4)cc3)nc2)c(OC)n1 [CBK036988] | 199.122 |
| CC(C)[C@H](CO)NC(=O)c1cnc(-c2ccccc2)c(-c2ccncc2)c1 [CBK036691] | 153.311 |

From article PMC12040169 (PLOS Biology, 2025)
